{"sequences": {"note": "By UniProt entry, the sequences of proteins in these tests, tags left out. Where a name states a change or a piece, a line headed by the entry shows the natural chain unless it says otherwise.", "UniProt Q02152": "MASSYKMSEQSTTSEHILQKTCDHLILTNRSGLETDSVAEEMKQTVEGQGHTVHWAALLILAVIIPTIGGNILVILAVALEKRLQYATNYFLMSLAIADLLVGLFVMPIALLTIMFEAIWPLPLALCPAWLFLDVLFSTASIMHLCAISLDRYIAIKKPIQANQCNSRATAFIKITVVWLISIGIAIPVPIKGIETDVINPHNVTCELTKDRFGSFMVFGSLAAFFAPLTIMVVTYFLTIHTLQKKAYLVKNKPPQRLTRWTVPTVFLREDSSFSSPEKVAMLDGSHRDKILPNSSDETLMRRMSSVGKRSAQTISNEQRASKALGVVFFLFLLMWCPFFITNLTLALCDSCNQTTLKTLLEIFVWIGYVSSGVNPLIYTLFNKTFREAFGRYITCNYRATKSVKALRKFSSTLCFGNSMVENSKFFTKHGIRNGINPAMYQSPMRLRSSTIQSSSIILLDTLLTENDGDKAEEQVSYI", "UniProt P34968": "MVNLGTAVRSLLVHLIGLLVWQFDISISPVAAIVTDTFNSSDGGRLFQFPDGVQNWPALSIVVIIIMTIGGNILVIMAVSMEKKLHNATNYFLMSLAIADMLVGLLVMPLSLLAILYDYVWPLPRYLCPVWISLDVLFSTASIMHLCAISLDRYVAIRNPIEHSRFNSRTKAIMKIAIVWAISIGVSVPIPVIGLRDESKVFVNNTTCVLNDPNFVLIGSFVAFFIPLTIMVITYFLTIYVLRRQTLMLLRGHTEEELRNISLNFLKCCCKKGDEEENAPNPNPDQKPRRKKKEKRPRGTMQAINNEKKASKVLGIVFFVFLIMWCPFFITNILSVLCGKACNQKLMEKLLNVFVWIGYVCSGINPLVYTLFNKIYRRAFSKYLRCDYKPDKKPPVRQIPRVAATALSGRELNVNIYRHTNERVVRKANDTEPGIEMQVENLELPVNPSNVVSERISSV", "UniProt P35363": "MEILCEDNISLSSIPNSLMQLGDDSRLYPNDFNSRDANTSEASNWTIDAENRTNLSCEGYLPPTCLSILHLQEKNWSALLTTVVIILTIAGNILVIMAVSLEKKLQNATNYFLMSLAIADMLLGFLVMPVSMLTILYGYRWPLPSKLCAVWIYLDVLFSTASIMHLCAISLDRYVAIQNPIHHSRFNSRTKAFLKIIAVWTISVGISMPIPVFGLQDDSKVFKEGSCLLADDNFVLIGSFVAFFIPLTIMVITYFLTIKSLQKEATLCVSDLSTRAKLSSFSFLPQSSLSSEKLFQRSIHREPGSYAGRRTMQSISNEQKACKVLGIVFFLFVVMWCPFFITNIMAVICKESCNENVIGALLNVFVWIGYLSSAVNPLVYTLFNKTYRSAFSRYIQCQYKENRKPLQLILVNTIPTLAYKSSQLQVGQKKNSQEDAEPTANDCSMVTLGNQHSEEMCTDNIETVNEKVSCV"}, "source": "ChEMBL document CHEMBL1129407", "about": "“Synthesis and evaluation of heterocyclic carboxamides as potential antipsychotic agents” (J Med Chem, 1996)", "target": "Serotonin 2 (5-HT2) receptor (Mus musculus, UniProt Q02152+P34968+P35363)", "assay": "Inhibitory activity against serotonin 5-hydroxytryptamine 2 receptor from mice.", "format": "protein assay", "data": [{"compound": "Cc1nc2n(c(=O)c1CCN1CCC(c3noc4cc(F)ccc34)CC1)CCCC2", "note": "[RISPERIDONE]", "values": [{"measurement": "IC50", "result": 1.5, "unit": "nM"}]}]}
